Results published in article PMC6018503.
These are yes or no findings as the source states them, for the method shown. In cells and extracts the contact can be indirect. For some assays here: A result given as binding can be weak or reduced; the word gives no strength.

T1: AtRFC2 (Arabidopsis thaliana) (UniProt Q9CAM7)
T1 sequence: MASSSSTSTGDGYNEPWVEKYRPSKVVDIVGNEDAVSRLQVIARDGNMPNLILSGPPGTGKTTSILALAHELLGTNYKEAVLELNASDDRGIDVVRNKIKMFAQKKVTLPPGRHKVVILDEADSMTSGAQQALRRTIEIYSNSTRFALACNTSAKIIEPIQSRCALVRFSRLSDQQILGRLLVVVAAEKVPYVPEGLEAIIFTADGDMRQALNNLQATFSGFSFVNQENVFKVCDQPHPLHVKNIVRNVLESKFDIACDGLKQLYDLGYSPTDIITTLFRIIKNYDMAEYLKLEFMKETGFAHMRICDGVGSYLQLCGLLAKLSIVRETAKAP

T2: AtRFC1 (Arabidopsis thaliana) (UniProt Q9C587)
T2 sequence: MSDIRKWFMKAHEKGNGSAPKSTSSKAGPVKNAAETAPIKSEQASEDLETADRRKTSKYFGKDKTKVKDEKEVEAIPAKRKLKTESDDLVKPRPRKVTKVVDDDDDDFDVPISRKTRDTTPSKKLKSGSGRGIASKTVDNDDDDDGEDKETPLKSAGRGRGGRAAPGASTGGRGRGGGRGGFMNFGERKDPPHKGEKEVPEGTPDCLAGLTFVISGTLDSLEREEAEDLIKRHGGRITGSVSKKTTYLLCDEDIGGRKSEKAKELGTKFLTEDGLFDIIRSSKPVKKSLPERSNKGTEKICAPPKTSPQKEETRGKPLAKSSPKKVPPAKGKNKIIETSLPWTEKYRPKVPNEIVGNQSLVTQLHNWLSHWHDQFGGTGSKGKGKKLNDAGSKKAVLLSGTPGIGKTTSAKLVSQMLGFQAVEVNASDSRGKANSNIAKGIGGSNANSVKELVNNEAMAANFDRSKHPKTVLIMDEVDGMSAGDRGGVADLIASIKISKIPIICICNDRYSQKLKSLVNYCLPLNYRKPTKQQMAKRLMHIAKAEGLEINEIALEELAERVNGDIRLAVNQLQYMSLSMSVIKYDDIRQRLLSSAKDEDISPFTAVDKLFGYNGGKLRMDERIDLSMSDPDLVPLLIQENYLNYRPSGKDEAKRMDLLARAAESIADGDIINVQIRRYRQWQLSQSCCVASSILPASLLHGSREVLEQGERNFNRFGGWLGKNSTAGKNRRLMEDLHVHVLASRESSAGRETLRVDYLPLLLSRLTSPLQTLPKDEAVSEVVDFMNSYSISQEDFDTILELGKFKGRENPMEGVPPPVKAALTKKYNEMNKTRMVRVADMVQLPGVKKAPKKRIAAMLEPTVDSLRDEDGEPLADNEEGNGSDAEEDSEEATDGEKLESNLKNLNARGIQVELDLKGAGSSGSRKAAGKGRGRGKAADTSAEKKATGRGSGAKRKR


Key:
[1] = molecular target: T1, AtRFC2 (Arabidopsis thaliana); assay: split reporter; BiFC; YFP^N (aa 1-155) and YFP^C (aa 156-239) fusions (pCAMBIA-SPYNE, pCAMBIA-SPYCE) co-expressed in tobacco (Nicotiana benthamiana) leaf epidermal cells through Agrobacterium GV3101; confocal microscopy of YFP; only the two named fusions
[2] = molecular target: T2, AtRFC1 (Arabidopsis thaliana); assay: split reporter; BiFC in tobacco leaf epidermal cells with truncated AtRFC proteins, pairs that include AtRFC1 or a truncated AtRFC1; whether the other small subunits were co-expressed is not said
[3] = molecular target: AtRFC3 (Arabidopsis thaliana); assay: as above

Molecule | binding [1] | binding [2] | binding [3]
AtRFC3 Δ350–369 (Arabidopsis thaliana) (domain or fragment) | binds | no binding | 
AtRFC3 ΔC330–369 (Arabidopsis thaliana) (domain or fragment) | no binding | no binding | 
AtRFC1 Δ1-457 (domain or fragment, UniProt Q9C587 458-956) MAANFDRSKHPKTVLIMDEVDGMSAGDRGGVADLIASIKISKIPIICICNDRYSQKLKSLVNYCLPLNYRKPTKQQMAKRLMHIAKAEGLEINEIALEELAERVNGDIRLAVNQLQYMSLSMSVIKYDDIRQRLLSSAKDEDISPFTAVDKLFGYNGGKLRMDERIDLSMSDPDLVPLLIQENYLNYRPSGKDEAKRMDLLARAAESIADGDIINVQIRRYRQWQLSQSCCVASSILPASLLHGSREVLEQGERNFNRFGGWLGKNSTAGKNRRLMEDLHVHVLASRESSAGRETLRVDYLPLLLSRLTSPLQTLPKDEAVSEVVDFMNSYSISQEDFDTILELGKFKGRENPMEGVPPPVKAALTKKYNEMNKTRMVRVADMVQLPGVKKAPKKRIAAMLEPTVDSLRDEDGEPLADNEEGNGSDAEEDSEEATDGEKLESNLKNLNARGIQVELDLKGAGSSGSRKAAGKGRGRGKAADTSAEKKATGRGSGAKRKR |  |  | no binding
